Screening data, single-dose tests

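Whole-parasite assay of Trypanosoma brucei over 72 hours; the read-out is not stated. Tested at 30 µM. The record gives no direction; compounds that gave an IC50 in retests scored well above the rest, so higher reads as stronger inhibition. Values scatter widely below zero; nearly all retest evidence comes from the higher of the two concentrations used. Of about 64,000 compounds tested this way, about 940 (1.5%) reached 50% or more in at least one test.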

Results are given as percent effect. How 0% and 100% were set is not recorded. Most values in the screen are low, and negative values occur. The compounds are a random part of those screened.

| SMILES | effect |
|---|---|
| `O=C1CC2(CCN(C(=O)c3ccncc3)CC2)Oc2c(Cl)cc(Cl)cc21` | 10.62 |
| `CC(C)Oc1ccc(C(=O)N2CCCSCC2CN(C)C)cc1` (stereo not shown) | 4.504 |
| `CN(C)C(=O)C1CCC2(CCN(C(=O)Nc3ccccc3)CC2)O1` (stereo not shown) | 2.519 |
| `CN1CCNC(Cc2ccc(-c3ccccc3)cc2)C1=O` (stereo not shown) | -56.12 |
| `Cc1nn(C(C)(C)C)c(C)c1C(=O)NCC1(C(N)=O)CCOCC1` | -9.021 |
| `Cn1cccc1C(=O)N1CCC2(CCCN2Cc2ccccc2)CC1.O=C(O)C(F)(F)F` | 11.3 |
| `Cc1nc(C)n(CC(C)C(=O)N2CCC(NS(C)(=O)=O)CC2)n1` (stereo not shown) | -6.476 |
| `CCc1n[nH]c(C2CN(CCc3cccs3)CCO2)n1` (stereo not shown) | 4.842 |
| `COc1ccccc1C(=O)NCCC(=O)Nc1c(C)nn(C)c1C` | -36.41 |
| `Nc1cc(C(=O)NCC2CCN(Cc3ccncc3F)C2)ccn1` (stereo not shown) | -118.3 |
| `Cc1ccc(N(C)Cc2nnnn2C2CC2)c(C)c1` | -32.26 |
| `CN(CC(=O)N(C)C)Cc1ccc(C#N)cc1F` | -45.4 |
| `CCOCC(=O)N(C)Cc1nc(C(F)(F)F)cs1` | -8.093 |
| `COCCN1CCc2nc(SCc3ccc(F)cc3)[nH]c(=O)c2C1` | -9.735 |
| `Cc1cccc(CN2CCc3ncnc(-c4ccsc4)c3CC2)n1.O=C(O)C(F)(F)F` | -16.64 |
| `Cc1ccnn1CC(=O)N(C)Cc1cnn(-c2ccccc2)c1` | -26.69 |
| `CC1(C)C[C@H](CCNC(=O)c2ccncc2)c2ccccc2O1` | -18.91 |
| `Cc1cc(CSCc2csc(CS(C)(=O)=O)n2)no1` | 3.016 |
| `CC(C)(C)c1nc2cc(NC(=O)Cn3ccc(=O)[nH]c3=O)ccc2o1` | -33.39 |
| `O=C(CSCCN1CCOCC1)N1CCCCCC1` | -30.28 |
| `O=C(c1ccco1)N1CCCC2(CN(Cc3ccoc3)CCO2)C1` (stereo not shown) | 3.196 |
| `O=C(C(c1ccccc1)S(=O)(=O)c1ccccc1)N1CCCCC1` (stereo not shown) | -3.384 |
| `O=C(CCn1cccn1)N1CC[C@@H](c2ccc3ccccc3c2)[C@H](O)C1` | -100.7 |
| `N#Cc1cccc(NC(=O)N[C@H](CO)c2ccccc2)c1` | -3.671 |
| `Cc1occc1C(=O)N1CCC2(CC1)CN(c1ccccn1)CCO2.O=C(O)C(F)(F)F` | -12.05 |
| `CCOc1ccc(NC(C)c2nnnn2-c2ccccc2)cc1CO` (stereo not shown) | -65.28 |
| `COc1ccc(C(=O)N2CC[C@H](CO)[C@H](O)C2)c(C)c1` | 39.12 |
| `CCS(=O)(=O)NCCN1CCc2ccc(F)cc2C1C` (stereo not shown) | 10.79 |
| `NC(=O)Cn1cc(NC(=O)NCC2CCN(c3ccccc3)C2)cn1` (stereo not shown) | -47.35 |
| `CCCNC(=O)Cn1c(-n2nc(C)cc2C)nc(CCC)cc1=O` | -18.56 |
| `Cc1c(C2SCC(=O)Nc3c2c(O)nn3C(C)C)cnn1C` (stereo not shown) | -0.3676 |
| `Nc1nnc(SCc2cc(=O)n3c4c(sc3n2)CCCC4)[nH]1` | 13.5 |
| `O=C(CCN1CCCCO1)NCCSc1cnn[nH]1` | 3.38 |
| `CC(Cc1cn(CCc2nc(N)cc(O)n2)nn1)c1ccccc1` (stereo not shown) | -21.28 |
| `CCc1cnc(CN(C(C)=O)C2CCN(CCc3ccccn3)C2)o1` (stereo not shown) | 5.028 |
| `CNC(=O)c1nc(Cn2ncc3ccccc3c2=O)no1` | -85.33 |
| `FC(F)(F)CCc1ccnc(N2CCN(Cc3ccncc3)CC2)n1` | 3.57 |
| `NC(=O)CN1CCCN(C(=O)COc2cccc(F)c2)CC1` | -19.29 |
| `Cc1cc2nc(C(C)C)cc(NCC(c3ccccn3)N(C)C)n2n1` (stereo not shown) | -11.25 |
| `CC(C)c1nc(CN(C)Cc2cnc(N3CCOCC3)nc2)no1` | -11.3 |
| `Cc1nc(O)c2nnn(C[C@H]3CCCN3C(=O)c3cccs3)c2n1` | 2.506 |
| `CC(=O)NCCCSC1CCCN(c2ccccc2Cl)C1=O` (stereo not shown) | -41.87 |
| `Cc1cc(C)nc(Nc2cccc(C3CCCN(CCO)C3)n2)n1` (stereo not shown) | -0.3919 |
| `CN(C)C(=O)N1CCn2c(Cn3cccn3)cnc2C1` | -12.93 |
| `CC(=O)NCCC1CCCCN1S(=O)(=O)c1cccc(C#N)c1` (stereo not shown) | 21.98 |
| `CCN(C(=O)c1cc(C)nc2ccccc12)C1CC(=O)NC1=O` (stereo not shown) | -6.509 |
| `Cn1ccc(-c2cc(C(=O)N3CCC(C(N)=O)CC3)c3ccccn23)n1` | -56.12 |
| `CCc1c(C(=O)O)nnn1-c1cccc(C)c1C` | -45.07 |
| `CCOC(=O)CCNC(=O)c1cccc2ccc(C)nc12` | -2.875 |
| `CNc1ncc(CN(C)C(=O)CCc2[nH]nc3c2CCCC3)cn1` | 4.537 |
| `NC(=O)C1Cn2ccnc2C2(CCN(C(=O)NC3CCCC3)CC2)O1.O=C(O)C(F)(F)F` (stereo not shown) | -70.54 |
| `COCC(=O)N1CC[C@@H](N2CCOCC2)[C@@H]1Cc1cccnc1` | 16.78 |
| `Cc1cccc(-c2cccc(CC3(C(=O)O)CCOCC3)c2)c1` | -31.37 |
| `O=C(O)C(F)(F)F.O=C(O)C(F)(F)F.[H][C@@]12COC[C@@H](C(=O)NCc3ccccn3)[C@]1([H])CN(C1CCC1)C2` | -118.1 |
| `Cc1nc2ccc(C(=O)N3C[C@@H](O)[C@H](N4CCCC4)C3)cc2[nH]1` | -27.42 |
| `CNc1[nH]nc(N)c1C(=O)Nc1ccc(OC)cc1` | -7.347 |

5 of the entries, repeated:

- CN1CCNC(Cc2ccc(-c3ccccc3)cc2)C1=O (stereo not shown) : -56.12%
- Cc1occc1C(=O)N1CCC2(CC1)CN(c1ccccn1)CCO2.O=C(O)C(F)(F)F : -12.05%
- CNC(=O)c1nc(Cn2ncc3ccccc3c2=O)no1 : -85.33%
- CCc1c(C(=O)O)nnn1-c1cccc(C)c1C : -45.07%
- CCOC(=O)CCNC(=O)c1cccc2ccc(C)nc12 : -2.875%

The values are deposited in ChEMBL (CHEMBL3988442, “University of Dundee, Small-Polar-MMV Screening Library” (2021)).